Taken from: PubChem BioAssay AID1159592 (NIAID, 2016)

Purpose: 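Toll-like receptor pathway genes that R848 needs to send NF-kB into the nucleus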
Cell system: RAW264.7 macrophages from mouse bearing reporters for p65 (GFP) and the Tnf promoter (mCherry)
Reagents: single siRNA against mouse genes
Duration: 48 to 72 hours after siRNA transfection
Challenge: R848 TLR ligand for 40 minutes before fixation; dose not given
Read-out: 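Replicate mean of robust z-score relative to negative-control wells, after median/MAD scaling by plate, for the imaged GFP-p65 nuclear-to-cytoplasmic ratio 40 minutes after R848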
Direction: NF-kB translocation z-score: higher = more p65 moved into the nucleus than in negative-control wells
Hit rule: 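a call of active needs an averaged z beyond 1.5 in either direction; tiers of absolute z at 1, 1.5, 2 and 2.5 are also set by the depositor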
Calls: active = strong change, either direction; inactive = little change
The deposit covers 756 reagents; this is an unselected part. 147 of them (19%) were called active. 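Active covers both loss and gain of p65 entry; negative z means weaker NF-kB activation, positive means more nuclear p65.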 A number with no mark means an inactive call. Reagents against one gene are numbered here. Not stated in the record: the amount of reagent.

| gene | siRNA no. | NF-kB translocation z-score, replicate mean |
| --- | --- | --- |
| Tlr9 | 1 | -0.223 |
| Tlr9 | 2 | -0.0503 |
| Tlr9 | 3 | -0.617 |
| Tlr9 | 4 | -0.427 |
| Tlr9 | 5 | -1.03 |
| Tlr9 | 6 | -1.32 |
| Mapk13 | 1 | -1.76 (active) |
| Mapk13 | 2 | -2.44 (active) |
| Mapk13 | 3 | 0.319 |
| Mapk13 | 4 | -0.399 |
| Mapk13 | 5 | 0.712 |
| Mapk13 | 6 | -0.939 |
| Ets1 | 1 | 0.927 |
| Ets1 | 2 | 0.952 |
| Ets1 | 3 | -2.08 (active) |
| Ets1 | 4 | 1.09 |
| Ets1 | 5 | 1.67 (active) |
| Ets1 | 6 | 0.135 |
| Relb | 1 | -0.636 |
| Relb | 2 | -0.218 |
| Relb | 3 | -0.46 |
| Relb | 4 | 0.209 |
| Relb | 5 | -0.502 |
| Relb | 6 | 0.435 |
| Mapkapk2 | 1 | -2.24 (active) |
| Mapkapk2 | 2 | 1.01 |
| Mapkapk2 | 3 | -0.53 |
| Mapkapk2 | 4 | -0.42 |
| Mapkapk2 | 5 | 0.725 |
| Mapkapk2 | 6 | 1.42 |
| Elf4 | 1 | 0.143 |
| Elf4 | 2 | -1.38 |
| Elf4 | 3 | -0.645 |
| Elf4 | 4 | -0.626 |
| Elf4 | 5 | -1.56 (active) |
| Elf4 | 6 | -0.328 |
| Tab1 | 1 | -0.677 |
| Tab1 | 2 | -1.18 |
| Tab1 | 3 | -1.43 |
| Tab1 | 4 | -1.39 |
| Tab1 | 5 | -0.115 |
| Tab1 | 6 | -1.82 (active) |
| Ticam2 | 1 | -1.7 (active) |
| Ticam2 | 2 | 0.762 |
| Ticam2 | 3 | -0.0751 |
| Ticam2 | 4 | 0.00492 |
| Ticam2 | 5 | -0.146 |
| Ticam2 | 6 | -0.963 |
| Map2k6 | 1 | -1.56 (active) |
| Map2k6 | 2 | -1.26 |
| Map2k6 | 3 | -0.0899 |
| Map2k6 | 4 | 0.755 |
| Map2k6 | 5 | -1.52 (active) |
| Map2k6 | 6 | 0.0324 |
| Btk | 1 | -0.474 |
| Btk | 2 | 0.878 |
| Btk | 3 | -1.82 (active) |
| Btk | 4 | -1.75 (active) |
| Btk | 5 | -2.17 (active) |
| Btk | 6 | -1.34 |

Continued, starting with the last 13 of the part before.
| gene | siRNA no. | NF-kB translocation z-score, replicate mean |
| --- | --- | --- |
| Ticam2 | 6 | -0.963 |
| Map2k6 | 1 | -1.56 (active) |
| Map2k6 | 2 | -1.26 |
| Map2k6 | 3 | -0.0899 |
| Map2k6 | 4 | 0.755 |
| Map2k6 | 5 | -1.52 (active) |
| Map2k6 | 6 | 0.0324 |
| Btk | 1 | -0.474 |
| Btk | 2 | 0.878 |
| Btk | 3 | -1.82 (active) |
| Btk | 4 | -1.75 (active) |
| Btk | 5 | -2.17 (active) |
| Btk | 6 | -1.34 |
| Tnf | 1 | -0.00669 |
| Tnf | 2 | 0.0703 |
| Tnf | 3 | 1.43 |
| Tnf | 4 | -0.338 |
| Tnf | 5 | 1.36 |
| Tnf | 6 | -1.39 |
| Dusp2 | 1 | -0.546 |
| Dusp2 | 2 | 0.321 |
| Dusp2 | 3 | -0.756 |
| Dusp2 | 4 | 0.082 |
| Dusp2 | 5 | -1.05 |
| Dusp2 | 6 | -0.399 |
| Ptpn6 | 1 | 0.514 |
| Ptpn6 | 2 | 0.367 |
| Ptpn6 | 3 | -3.02 (active) |
| Ptpn6 | 4 | -2.08 (active) |
| Ptpn6 | 5 | -1.49 |
| Ptpn6 | 6 | -1.56 (active) |
| Chuk | 1 | 0.554 |
| Chuk | 2 | -2.16 (active) |
| Chuk | 3 | 0.12 |
| Chuk | 4 | -1.94 (active) |
| Chuk | 5 | -1.73 (active) |
| Chuk | 6 | 1.09 |
| Dab2ip | 1 | 0.449 |
| Dab2ip | 2 | -0.0586 |
| Dab2ip | 3 | -0.994 |
| Dab2ip | 4 | -2.43 (active) |
| Dab2ip | 5 | -0.915 |
| Dab2ip | 6 | -0.702 |
| Tlr8 | 1 | 0.649 |
| Tlr8 | 2 | 0.711 |
| Tlr8 | 3 | -0.319 |
| Tlr8 | 4 | 0.652 |
| Tlr8 | 5 | 0.0993 |
| Tlr8 | 6 | -0.989 |
| Ifnar2 | 1 | 3.59 (active) |
| Ifnar2 | 2 | 0.41 |
| Ifnar2 | 3 | 1.51 (active) |
| Ifnar2 | 4 | 0.176 |
| Ifnar2 | 5 | -0.296 |
| Ifnar2 | 6 | -2.32 (active) |
| Mapk3 | 1 | -1.43 |
| Mapk3 | 2 | 0.845 |
| Mapk3 | 3 | 0.0363 |
| Mapk3 | 4 | -0.528 |
| Mapk3 | 5 | -0.624 |
| Mapk3 | 6 | -0.0806 |
| Elk1 | 1 | -0.555 |
| Elk1 | 2 | -0.979 |
| Elk1 | 3 | -0.657 |
| Elk1 | 4 | -2.83 (active) |
| Elk1 | 5 | -3.06 (active) |
| Elk1 | 6 | -0.586 |
